Laboratory results as given in publication PMC7819943, “Rice protein-binding microarrays: a tool to detect cis-acting elements near promoter regions in rice”.
Some of the results follow.

By UniProt entry, the sequences of proteins in these tests, tags left out.
UniProt Q0JBA9, entry or part of it: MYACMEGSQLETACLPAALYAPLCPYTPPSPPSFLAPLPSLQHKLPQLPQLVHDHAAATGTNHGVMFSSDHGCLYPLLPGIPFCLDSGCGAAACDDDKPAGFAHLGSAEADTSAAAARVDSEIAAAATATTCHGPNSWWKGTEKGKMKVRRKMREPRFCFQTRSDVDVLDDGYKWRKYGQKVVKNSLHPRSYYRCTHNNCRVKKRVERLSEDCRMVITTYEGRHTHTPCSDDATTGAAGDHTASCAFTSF

Target: OsWRKY34 (Oryza sativa, UniProt Q0JBA9 1-250)
Assay: protein-binding microarray (RPBM); PBS, 2% BSA, 51.3 ng/ul salmon testes DNA, 50 uM zinc acetate, 200 nM TF, 25 C, 1 h; high values mean tight binding
Details: protein: recombinant; tags: N-terminal polyhistidine and DsRed monomer fusion (pET32a); label: CyDye5-dUTP incorporated in the synthesized complementary strand; 3' TTTTT single-stranded linker to array surface; dsDNA, one strand shown
Outline: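 The binding signal is fluorescence intensity per feature, in arbitrary units, read on an Axon 4000B scanner. Polyhistidine- and DsRed-tagged transcription factors (N-terminal fusions) from E. coli BL21-CodonPlus were purified on Ni–NTA and applied at 200 nM for 1 h at 25 °C to a double-stranded, BSA-blocked custom Agilent array in buffer with 50 µM zinc acetate.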

| Sequence | binding signal |
| --- | --- |
| CAATTCAATCTGAGATTTGTACACCATGACATTTTCTTCACGGAGTCACCTAGTGCAG | 8280 fluorescence intensity (a.u.) |
| GATTTCAAGGCAGTGATCAGCATATATCCGGATGTGGATTCGGAGTCACCTAGTGCAG | 8040 fluorescence intensity (a.u.) |
| TAACTGATTCCGCGCTCTATCTTCCTCGCCTGTCTCCGCACGGAGTCACCTAGTGCAG | 13800 fluorescence intensity (a.u.) |
| ATTATCGTTAGTTTCGGTCCAACCCTTGTTACGTGCAATCCGGAGTCACCTAGTGCAG | 12900 fluorescence intensity (a.u.) |
| CTGCTCTCTCATCTCTTCCGTTTTGTCCATATTCCTTTAACGGAGTCACCTAGTGCAG | 8050 fluorescence intensity (a.u.) |
| TCGGATGTCCCAAGCTCGCCGCGCCACCTCTGACGGCACCCGGAGTCACCTAGTGCAG | 9340 fluorescence intensity (a.u.) |
| TTCTGTCGATTGAAGTTTAGCAATTCCGTTATTTTTATTTCGGAGTCACCTAGTGCAG | 9330 fluorescence intensity (a.u.) |
| CTCGAGAGTTATTTATTATTTATATTTCCAAAGGTTTGACCGGAGTCACCTAGTGCAG | 8400 fluorescence intensity (a.u.) |
| AACAAATACTATTTTTCAGCTTTTCTTTTTTGTTTCCTGACGGAGTCACCTAGTGCAG | 8500 fluorescence intensity (a.u.) |
| GGGTACTTTTTTTACCCGGCCTTTATATCCAACCGGATATCGGAGTCACCTAGTGCAG | 8590 fluorescence intensity (a.u.) |
| AATGCAGTTTGTTTTCCTTACACATGTTTTTTCTGTGTAACGGAGTCACCTAGTGCAG | 8480 fluorescence intensity (a.u.) |
| GCACCCACTGCCCAATGAGACAGCACCACCCGCATCATTCCGGAGTCACCTAGTGCAG | 8190 fluorescence intensity (a.u.) |
| CGGGGCGTGACAGACCATTTCCTTGATATCACTTCAATACCGGAGTCACCTAGTGCAG | 11000 fluorescence intensity (a.u.) |
| CAGCAGCGAATTTTCAGTCATTTCAAACTGTCGTAGTTATCGGAGTCACCTAGTGCAG | 8200 fluorescence intensity (a.u.) |
| AATTCCTTACGTTGACCATTATTTAAGCCTCAAAATCATCCGGAGTCACCTAGTGCAG | 10800 fluorescence intensity (a.u.) |
| CATCCCGTGGTCACCGCACTTCTCCGGTCGTTCTGGCCGCCGGAGTCACCTAGTGCAG | 8150 fluorescence intensity (a.u.) |
| TTCTTTTATCTGCTCTTTTCTTGAACATGTCGTTAGACCTCGGAGTCACCTAGTGCAG | 13500 fluorescence intensity (a.u.) |
| GTTATTTTCTTCCCTTTCCTAACTTCTATCCATTCGTTTTCGGAGTCACCTAGTGCAG | 16000 fluorescence intensity (a.u.) |
| TGGAAGGGGCAGGTTCGAGGTGCTGTCTGGGTATGTCAATCGGAGTCACCTAGTGCAG | 11500 fluorescence intensity (a.u.) |
| GATTGCGCGGTTCTTCTGTTTCCGGCTGGCTCAGAGCCAACGGAGTCACCTAGTGCAG | 9710 fluorescence intensity (a.u.) |
| CTCCACTCGTCTCCGCTATTTAAGCCGCCGTCTTCGCCTCCGGAGTCACCTAGTGCAG | 9840 fluorescence intensity (a.u.) |

| Sequence | binding signal |
| --- | --- |
| CCCACCACCACCTGTGCCAGTAAACCGTTGTAGCTGAGATCGGAGTCACCTAGTGCAG | 8120 fluorescence intensity (a.u.) |
| CTTCCCGCGCGCTCTATATAAAGCCATGCGCTCCCATCGCCGGAGTCACCTAGTGCAG | 8400 fluorescence intensity (a.u.) |
| TCCACACCCCACCACCACCGCCGTCGCCTCCACCCCGCCGCGGAGTCACCTAGTGCAG | 8160 fluorescence intensity (a.u.) |
| TTTCTTGTTTTCTTCTCATTCTTCTTTTTTTTCTTTCTTCCGGAGTCACCTAGTGCAG | 14700 fluorescence intensity (a.u.) |
| GATACCTCACAGTTCACAGCTGCTGCACACCAAACAGACACGGAGTCACCTAGTGCAG | 8690 fluorescence intensity (a.u.) |
| TACTTTTCTCTTTTCTTCTCATGCTATCTTGTATTTGTGACGGAGTCACCTAGTGCAG | 8900 fluorescence intensity (a.u.) |
| ACATGGGTATCTATAGCTCTCTAATACATTGCCTCGTTTTCGGAGTCACCTAGTGCAG | 8130 fluorescence intensity (a.u.) |
| ACTGTTCATATTGCTTTCTATCAGTAGCCTGGGATTGGGACGGAGTCACCTAGTGCAG | 8610 fluorescence intensity (a.u.) |
| GATATCTCTCTATGCTTTCCGCGGTCAGTTCTTGCTGCTACGGAGTCACCTAGTGCAG | 8480 fluorescence intensity (a.u.) |
| GGCATTGTCACTTCTTGTTCTTGGCAGCGAGCGCCATTTCCGGAGTCACCTAGTGCAG | 11900 fluorescence intensity (a.u.) |
| TACGGACTCCATATTCCTTGACTTTACCAAATTTCGGTCTCGGAGTCACCTAGTGCAG | 10300 fluorescence intensity (a.u.) |
| GCCTCTGTCTTGTCTCTCTACTCTCTGAAGTTCAGTTCAGCGGAGTCACCTAGTGCAG | 9730 fluorescence intensity (a.u.) |
| TGTACACCTAATGCATCAACAATTTCTTTTGTTCTCAAGTCGGAGTCACCTAGTGCAG | 9230 fluorescence intensity (a.u.) |
| TGGACATTTCACGCGCGCTCTCCGCTCCAGCCTCCAGCCACGGAGTCACCTAGTGCAG | 11100 fluorescence intensity (a.u.) |
| GATTTTTTTTTTCTCGTCTCCTCGTTTTTGCTTGCCTTTCCGGAGTCACCTAGTGCAG | 19200 fluorescence intensity (a.u.) |
| TTGGAGGGTGCGGGATTTTTGGGCCCTGGCTCACATGTTTCGGAGTCACCTAGTGCAG | 8450 fluorescence intensity (a.u.) |
| TGTCCTTTACTTTTTTTTTCTTCTTTTCTTTTTCTTTTTCCGGAGTCACCTAGTGCAG | 12800 fluorescence intensity (a.u.) |
| AGATTACCTACTGCGCCATCCACTCGCTCATCATGTTTGCCGGAGTCACCTAGTGCAG | 9720 fluorescence intensity (a.u.) |
| GACCATCTCTACAACTAGTTGTACTATACTTAGCAATTGTCGGAGTCACCTAGTGCAG | 8350 fluorescence intensity (a.u.) |
| TACTAGGTATCATTATACTCTATATTGTCGATTTTTTTTCCGGAGTCACCTAGTGCAG | 10900 fluorescence intensity (a.u.) |
| ACACCTTGTCACATTCCAGTCCATGCCCTCTCCCAGATCGCGGAGTCACCTAGTGCAG | 8400 fluorescence intensity (a.u.) |

Copied from the list:
Entry of TGTCCTTTACTTTTTTTTTCTTCTTTTCTTTTTCTTTTTCCGGAGTCACCTAGTGCAG under binding signal: 12800 fluorescence intensity (a.u.)
Entry of TACTTTTCTCTTTTCTTCTCATGCTATCTTGTATTTGTGACGGAGTCACCTAGTGCAG under binding signal: 8900 fluorescence intensity (a.u.)
